In PMC12442443, “Identifying interactions between TDP‐43's N‐terminal and RNA‐binding domains” (Protein Science : A Publication of the Protein Society, 2024):
These are yes or no findings as the source states them, for the method shown. Some entries that bind do so weakly or less than the wild type.

Molecular target: TDP-43(102-260), tandem RNA recognition motifs RRM1 and RRM2 of TAR DNA-binding Protein 43 kilodaltons (human)
Assay: native gel or EMSA; 4-16% Bis-Tris native gel, Coomassie; 8.125 uM RRM alone or with NTD(1-77) at 0.5:1, 1:1 and 2:1 (NTD:RRM); incubated 10 min at 25 C in 300 mM NaCl, 40 mM HEPES pH 6.5, 4 mM DTT; full shift only at 2:1; also repeated with added RNA; both purified

B1: TDP-43(1-77), structured portion of the N-terminal domain of TAR DNA-binding Protein 43 kilodaltons (domain or fragment)
chain: MSEYIRVTEDENDEPIEIPSEDDGTVLLSTVTAQFPGACGLRYRNPVSQCMRGVRLVEGILHAPDAGWGNLVYVVNY
For B1, which binding is on record?
The binding was “binds weakly”.
